At least one structure is not confirmed: it was looked up by name or label, or the drawing left a doubt.
Tested on: OR-S6 coexpressed with M3
Experiment: CRE-luciferase reporter assay of OR activation in HEK293T cells
Format: cell-based, mouse
Details: HEK293T coexpressing OR-S6, RTP1S and M3 vs. without M3
Procedure: Given that GPCRs that form heteromeric interactions often show functional co-modulation, experiments were conducted to determine if altering M3 activity directly affects the odor-mediated activation of ORs. […] HEK293T cells Hana3A cells were maintained in minimal essential medium (MEM) containing 10% fetal bovine serum (M10) and penicillin-streptomycin and amphotericin solution. Lipofectamine 2000 (Invitrogen) was used for transfection following manufacturer's protocols. […] Briefly, cAMP response element (CRE)-luciferase (Stratagene) was used to measure OR activation. […] Cells were plated on poly-D-lysine-coated 96-well plates (NUNC) 2 days prior to assay. Cells were transfected with ORs in either Hana3A or HEK293T cell lines along with various combinations of RTP1S, Ric-8b, M3, CRE-luciferase, and pRL-SV40. 18-24 hours after transfection, cells were rinsed with 50 μl of CD293 (Invitrogen) and stimulated with 25 μl of odorant solution dissolved in CD293. […] Normalized luciferase activity was calculated with the formula (LN−Lmin)/(Lmax−Lmin), where LN is the luminescence of firefly luciferase in response to the odorant, Lmin is the minimum luciferase value on a plate or set of plates, and Lmax is the maximum luciferase value on a plate or set of plates. The data was analyzed with Microsoft Excel and GraphPad Prism 5. […]

C=C[C@@]1(C)CC(=O)[C@]2(O)[C@@]3(C)[C@@H](O)CCC(C)(C)[C@@H]3[C@H](O)[C@H](OC(C)=O)[C@@]2(C)O1 [forskolin]
CRE-luciferase reporter response without OR ligands: Enhanced responses were observed only when OR-S6, RTP1S and M3 were all coexpressed | CRE-luciferase reporter response without OR ligands (listed as Forskolin): OR activation can be increased in the absence of odor

From patent US10883143B2, “Compositions and methods for enhancing odorant receptor activity” (DUKE UNIVERSITY, priority 2009, dated 2021)
